Measured data: PubChem BioAssay AID1224828 (NIAID, 2016)

Test: 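Regulators linking TLR4 signalling to p65 nuclear translocation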 (primary screen)
Cell system: mouse RAW264.7 G9 macrophage reporter cells (GFP-p65, Tnf promoter-mCherry)
Reagents: siRNA pool against mouse genes, 100 nM
Duration: 2 days siRNA transfection, then 40 min LPS before fixation
Challenge: LPS (Salmonella minnesota R595) at 10 ng/ml
Measurement: 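Microscopy ratio of nuclear to perinuclear-ring GFP-p65 signal, scaled to the plate median; gene score is the average of two replicate robust z-scores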
Reading the numbers: p65 translocation robust z-score: higher = more nuclear NF-kappaB p65 after LPS than the plate median; nuclear/cytoplasmic p65 ratio: higher = more nuclear NF-kappaB p65
Hit rule: 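Called active when z exceeds 3.3 or falls under -1.56 (median of Tlr4 controls), giving activity score of at least 50; no calls for control wells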
Calls: active = hit (p65 shift raised or lowered); inactive = no clear change
This is one part, drawn at random, of about 17,000 deposited reagents. 762 of all reagents (4.5%) were called active. 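Active calls include both raised and lowered p65 entry, mostly lowered; wells with fewer than 50 cells lack a z-score.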 The raw values are shown without normalisation.

After knock-down of Grin2c, the screen gave p65 translocation robust z-score 0.65; nuclear/cytoplasmic p65 ratio, rep 1 = 1.52; nuclear/cytoplasmic p65 ratio, rep 2 = 1.46; low cell count flag enough cells to score; inactive.
Idh2 scored p65 translocation robust z-score -1.33; nuclear/cytoplasmic p65 ratio, rep 1 = 1.39; nuclear/cytoplasmic p65 ratio, rep 2 = 1.22; low cell count flag enough cells to score; inactive.
Against Tagln2 the deposit lists p65 translocation robust z-score 1.69; nuclear/cytoplasmic p65 ratio, rep 1 = 1.75; nuclear/cytoplasmic p65 ratio, rep 2 = 1.94; low cell count flag enough cells to score; inactive.
Silencing of Map3k2 gave: nuclear/cytoplasmic p65 ratio, rep 1 = 1.67; nuclear/cytoplasmic p65 ratio, rep 2 = 1.42; low cell count flag fewer than 50 cells per well; well left out of scoring; inactive.
With knock-down of Abhd16a, the record shows p65 translocation robust z-score 0.2; nuclear/cytoplasmic p65 ratio, rep 1 = 1.54; nuclear/cytoplasmic p65 ratio, rep 2 = 1.96; low cell count flag enough cells to score; inactive.
For Gkap1, the entry reads p65 translocation robust z-score 0.34; nuclear/cytoplasmic p65 ratio, rep 1 = 1.39; nuclear/cytoplasmic p65 ratio, rep 2 = 1.5; low cell count flag enough cells to score; inactive.
Knock-down of Abcd2 gave: p65 translocation robust z-score 0.83; nuclear/cytoplasmic p65 ratio, rep 1 = 1.77; nuclear/cytoplasmic p65 ratio, rep 2 = 1.77; low cell count flag enough cells to score; inactive.
Against Ddb2, the entry reads p65 translocation robust z-score 1.86; nuclear/cytoplasmic p65 ratio, rep 1 = 1.74; nuclear/cytoplasmic p65 ratio, rep 2 = 1.61; low cell count flag enough cells to score; inactive.
With knock-down of Ugt3a1, the record shows p65 translocation robust z-score -0.77; nuclear/cytoplasmic p65 ratio, rep 1 = 1.49; nuclear/cytoplasmic p65 ratio, rep 2 = 1.57; low cell count flag enough cells to score; inactive.
After knock-down of Or10j5 the results were p65 translocation robust z-score 0.2; nuclear/cytoplasmic p65 ratio, rep 1 = 1.59; nuclear/cytoplasmic p65 ratio, rep 2 = 1.49; low cell count flag enough cells to score; inactive.
With knock-down of Hgsnat, the record shows p65 translocation robust z-score 1.01; nuclear/cytoplasmic p65 ratio, rep 1 = 1.79; nuclear/cytoplasmic p65 ratio, rep 2 = 1.62; low cell count flag enough cells to score; inactive.

Copied from the entries so far, 2 entries:
Tagln2 → p65 translocation robust z-score: 1.69; nuclear/cytoplasmic p65 ratio, rep 1: 1.75; nuclear/cytoplasmic p65 ratio, rep 2: 1.94; low cell count flag: enough cells to score; Call: inactive
Map3k2 → nuclear/cytoplasmic p65 ratio, rep 1: 1.67; nuclear/cytoplasmic p65 ratio, rep 2: 1.42; low cell count flag: fewer than 50 cells per well; well left out of scoring; Call: inactive

Continued.
4933436I01Rik scored p65 translocation robust z-score -1.64; nuclear/cytoplasmic p65 ratio, rep 1 = 1.37; nuclear/cytoplasmic p65 ratio, rep 2 = 1.24; low cell count flag enough cells to score; active.
Lce3b scored nuclear/cytoplasmic p65 ratio, rep 1 = 1.08; nuclear/cytoplasmic p65 ratio, rep 2 = 2.98; low cell count flag fewer than 50 cells per well; well left out of scoring; inactive.
For Pdcd6, the values are p65 translocation robust z-score -0.86; nuclear/cytoplasmic p65 ratio, rep 1 = 1.34; nuclear/cytoplasmic p65 ratio, rep 2 = 1.29; low cell count flag enough cells to score; inactive.
Tasp1 gave nuclear/cytoplasmic p65 ratio, rep 1 = 1.21; nuclear/cytoplasmic p65 ratio, rep 2 = 1.39; low cell count flag fewer than 50 cells per well; well left out of scoring; inactive.
Tubb2b scored p65 translocation robust z-score 0.74; nuclear/cytoplasmic p65 ratio, rep 1 = 1.5; nuclear/cytoplasmic p65 ratio, rep 2 = 1.39; low cell count flag enough cells to score; inactive.
With knock-down of Spink8, the record shows p65 translocation robust z-score 0.39; nuclear/cytoplasmic p65 ratio, rep 1 = 1.66; nuclear/cytoplasmic p65 ratio, rep 2 = 1.83; low cell count flag enough cells to score; inactive.
Against Elovl2, the values are p65 translocation robust z-score -0.85; nuclear/cytoplasmic p65 ratio, rep 1 = 1.34; nuclear/cytoplasmic p65 ratio, rep 2 = 1.27; low cell count flag enough cells to score; inactive.
For C030016D13Rik the deposit lists nuclear/cytoplasmic p65 ratio, rep 1 = 1.21; nuclear/cytoplasmic p65 ratio, rep 2 = 1.39; low cell count flag fewer than 50 cells per well; well left out of scoring; inactive.
Against Ttll1 the deposit lists p65 translocation robust z-score 0.93; nuclear/cytoplasmic p65 ratio, rep 1 = 1.66; nuclear/cytoplasmic p65 ratio, rep 2 = 1.33; low cell count flag enough cells to score; inactive.
Silencing of Kpna6 gave: p65 translocation robust z-score 0.06; nuclear/cytoplasmic p65 ratio, rep 1 = 1.49; nuclear/cytoplasmic p65 ratio, rep 2 = 1.38; low cell count flag enough cells to score; inactive.
Knock-down of Frat2 resulted in: p65 translocation robust z-score -0.78; nuclear/cytoplasmic p65 ratio, rep 1 = 1.35; nuclear/cytoplasmic p65 ratio, rep 2 = 1.25; low cell count flag enough cells to score; inactive.
Psmc2 showed nuclear/cytoplasmic p65 ratio, rep 1 = 1.31; nuclear/cytoplasmic p65 ratio, rep 2 = 1.3; low cell count flag fewer than 50 cells per well; well left out of scoring; inactive.
Against Insc, the entry reads nuclear/cytoplasmic p65 ratio, rep 1 = 1.24; nuclear/cytoplasmic p65 ratio, rep 2 = 1.24; low cell count flag fewer than 50 cells per well; well left out of scoring; inactive.
After knock-down of Med23 the results were p65 translocation robust z-score -1.49; nuclear/cytoplasmic p65 ratio, rep 1 = 1.32; nuclear/cytoplasmic p65 ratio, rep 2 = 1.15; low cell count flag enough cells to score; inactive.
Rhag scored nuclear/cytoplasmic p65 ratio, rep 1 = 1.34; nuclear/cytoplasmic p65 ratio, rep 2 = 1.35; low cell count flag fewer than 50 cells per well; well left out of scoring; inactive.
Knock-down of Vmn1r4 came out at: p65 translocation robust z-score 0.21; nuclear/cytoplasmic p65 ratio, rep 1 = 1.47; nuclear/cytoplasmic p65 ratio, rep 2 = 1.2; low cell count flag enough cells to score; inactive.
